# In PubChem BioAssay AID720504 (National Center for Advancing Translational Sciences (NCATS), 2013):
# Amino acid sequences for entries named in this document (tags omitted).
# UniProt P53350, whole entry, looked up: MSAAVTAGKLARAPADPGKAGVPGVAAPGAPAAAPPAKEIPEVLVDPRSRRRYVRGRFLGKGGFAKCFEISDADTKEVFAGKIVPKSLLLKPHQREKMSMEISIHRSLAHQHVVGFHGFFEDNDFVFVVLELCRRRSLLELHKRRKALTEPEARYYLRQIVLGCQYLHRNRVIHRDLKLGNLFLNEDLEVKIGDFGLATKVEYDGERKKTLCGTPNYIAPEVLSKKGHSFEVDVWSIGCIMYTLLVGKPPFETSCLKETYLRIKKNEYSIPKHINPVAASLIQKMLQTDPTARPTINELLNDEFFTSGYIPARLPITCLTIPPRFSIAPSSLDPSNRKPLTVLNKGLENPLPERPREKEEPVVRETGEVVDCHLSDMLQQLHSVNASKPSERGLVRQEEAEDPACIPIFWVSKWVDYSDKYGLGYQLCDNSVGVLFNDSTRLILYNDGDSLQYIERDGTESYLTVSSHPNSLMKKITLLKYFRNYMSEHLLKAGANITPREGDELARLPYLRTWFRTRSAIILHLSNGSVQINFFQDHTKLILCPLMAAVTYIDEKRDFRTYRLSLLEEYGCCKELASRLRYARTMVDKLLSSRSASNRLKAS
# The whole screen tested about 360,000 compounds, of which about 10,000 (2.8%) were called active. This list was built around the results that the source calls inconclusive (neither active nor inactive); the mix of calls is not that of the screen. The call rests on the fitted dose curve; in most records, active means well fitted inhibition curve with a large enough effect; inconclusive means small, poorly fitted or top-dose-only effect; inactive means flat fitted curve, though single readings scatter. A potency beside an inconclusive call is a rough fit, not a confirmed value. Where a SMILES comes first, the peptide text is derived from it. [ ]: non-standard residue; d: D form. The star is where a group is joined. Phe(4-Me) = Cc1ccc(C[CH](N)C(=O)O)cc1; Bz = O=C(c1ccccc1)*
# Target: Serine/threonine-protein kinase PLK1 (Homo sapiens) (UniProt P53350)
# Assay: qHTS for Inhibitors of PLK1-PDB (polo-like kinase 1 - polo-box domain): Primary Screen; further: nearly all actives have a fitted effect of over 65% in size; on max response, negative = inhibition: series mostly up to about 57 µM
# Settings: Plk1 PBD binding of FITC phosphopeptide, fluorescence polarization
# On the % scale 0 is the no-effect control and ±100 the full control effect; potency means the concentration at half of the fitted maximal effect.
Structure (SMILES),"max response, negative = inhibition",Potency
C1=C(c2ccccc2)N2CCN=C2S1,inactive: -4.9%,
Cc1cccc(NC(=O)CCC(=O)OCC(=O)c2ccc(Oc3ccc([N+](=O)[O-])cc3)cc2)c1,,active: 10.6 µM
CCOc1ccccc1N1CCN(C(=O)c2cc3cc(OC)ccc3[nH]2)CC1,inactive: -7.27%,
CC(C)(C)OC(=O)Nc1ccccc1-n1nnnc1C(C(=O)c1ccc(F)cc1)N1CCOCC1 (stereo not given),inactive: -21%,
COC(=O)C1=C2SC(C)C(=O)N2C(N)=C(C#N)C1c1ccc(OC)c(OC)c1 (stereo not given),inactive: -15.1%,
CN(c1ccccc1)S(=O)(=O)c1ccc(C(=O)Nc2nnc(-c3ccc(F)cc3)o2)cc1,,"inconclusive: 16.8 µM [inhibitor, partial curve]"
Cc1ccc(NC(=S)Nc2cccc3ccccc23)cc1,,"inconclusive: 29.9 µM [inhibitor, single point]"
Cc1cccc2[nH]c(-c3ccc(NC(=O)c4ccco4)cc3)nc12,,"inconclusive: 29.9 µM [inhibitor, single point]"
COc1cc(NC(=S)N2CCN(C)CC2)c(OC)cc1Cl,,active: 18.9 µM
CCO/C=C1\N=C(c2ccc(F)cc2)OC1=O,,"inconclusive: 16.8 µM [inhibitor, partial curve]"
Cc1sc2nc(SCC(=O)Nc3cccc(S(N)(=O)=O)c3)[nH]c(=O)c2c1C,,active: 23.8 µM
CCOC(=O)c1cccc(NC(=O)CCS(=O)(=O)c2cccc3nsnc23)c1,,"inconclusive: 21.2 µM [inhibitor, partial curve]"
CC(=O)c1ccc(-n2c(CCC(=O)O)ccc2-c2ccc(C)cc2)cc1,,"inconclusive: 29.9 µM [inhibitor, single point]"
Cc1nnc(NC(=O)CCS(=O)(=O)Cc2ccccc2)s1,,"inconclusive: 16.8 µM [inhibitor, partial curve]"
O=C(O)c1ccc(-n2ncc3c2/C(=C\c2cccc([N+](=O)[O-])c2)CC3)cc1,,"inconclusive: 16.8 µM [inhibitor, partial curve]"
Cc1ccc(C)c(N2C(=N)S/C(=C\c3ccc(-c4ccccc4C(=O)O)o3)C2=O)c1,,"inconclusive: 26.7 µM [inhibitor, single point]"
S=C1NC[C@H](Cc2ccccc2)N1CCCCC1CCCCC1,inactive: -5.66%,
CC(NCC1COc2ccccc2O1)C1COc2ccccc2O1 (stereo not given),,"inconclusive: 29.9 µM [inhibitor, single point]"
CCOC(=O)c1cc2sccc2n1CC(=O)OC,inconclusive: -30.2% [inhibitor],
Nc1nc(SCc2ccc(Cl)cc2Cl)c2ncn(C3OC(CO)C(O)C3O)c2n1 (stereo not given),inactive: -6.24%,
Cc1ccc(-c2cc(C(=O)N/N=C/C=C/c3ccccc3)n[nH]2)s1,,active: 6.7 µM
COc1ccc(NC2CS(=O)(=O)CC2NCc2ccco2)cc1 (stereo not given),,"inconclusive: 21.2 µM [inhibitor, single point]"
O=[N+]([O-])c1cccc(N(CC2CO2)S(=O)(=O)c2ccccc2)c1 (stereo not given),,"inconclusive: 37.7 µM [inhibitor, single point]"
CC(C)(C)[C@@H]1C=C(C(=O)O)[C@H](c2ccc(Cl)cc2)N1S(=O)(=O)c1ccccc1,,"inconclusive: 26.7 µM [inhibitor, partial curve]"

# Look-ups from the results shown:
# Cc1cccc(NC(=O)CCC(=O)OCC(=O)c2ccc(Oc3ccc([N+](=O)[O-])cc3)cc2)c1 – Potency: active: 10.6 µM
# CC(C)(C)[C@@H]1C=C(C(=O)O)[C@H](c2ccc(Cl)cc2)N1S(=O)(=O)c1ccccc1 – Potency: inconclusive: 26.7 µM [inhibitor, partial curve]
# CCO/C=C1\N=C(c2ccc(F)cc2)OC1=O – Potency: inconclusive: 16.8 µM [inhibitor, partial curve]
# Nc1nc(SCc2ccc(Cl)cc2Cl)c2ncn(C3OC(CO)C(O)C3O)c2n1 (stereo not given) – max response, negative = inhibition: inactive: -6.24%
# CC(=O)c1ccc(-n2c(CCC(=O)O)ccc2-c2ccc(C)cc2)cc1 – Potency: inconclusive: 29.9 µM [inhibitor, single point]

# (more compounds)

Structure (SMILES),"max response, negative = inhibition",Potency
Cc1cc(C)n2c(NC3CCCCC3)c(-c3cccnc3)nc2n1,inactive: -13.9%,
CSC1=NCCN1C(=O)c1ccc(S(=O)(=O)N(C)C)cc1,,active: 26.7 µM
Cc1nc(C)c(-c2ccc(SCC(=O)Nc3cccc(F)c3)nn2)s1,,"inconclusive: 23.8 µM [inhibitor, single point]"
Cc1ccc(C(=O)NCc2nnc3c(C(F)(F)F)cc(Cl)cn23)o1,,"inconclusive: 23.8 µM [inhibitor, single point]"
C=C(C)COc1ccc2c(CC)cc(=O)oc2c1,,active: 13.4 µM
C/C(N)=C(/C#N)C(=O)COC(=O)C(c1ccccc1)c1ccccc1,,"inconclusive: 21.2 µM [inhibitor, single point]"
COc1ccc(C(C)=O)cc1CSc1nnnn1-c1ccc(O)cc1,,"inconclusive: 15 µM [inhibitor, partial curve]"
COc1ccccc1NS(=O)(=O)c1ccc2oc(=S)[nH]c2c1,,"inconclusive: 13.4 µM [inhibitor, partial curve]"
Cn1nc(-c2ccccc2)c(C(=O)NCC(=O)O)c1Cl,,"inconclusive: 9.47 µM [inhibitor, partial curve, poor fit]"
O=C1CCCC(O)=C1N=Nc1ccc(Cl)c(Cl)c1,inactive: -4.46%,
Fc1ccc(-c2nc3ccccc3[nH]2)cc1,,"inconclusive: 42.3 µM [inhibitor, partial curve]"
COc1ccc(-c2csc(NC(=O)CCS(=O)(=O)c3ccccc3)n2)c(OC)c1,,"inconclusive: 26.7 µM [inhibitor, partial curve]"
COc1ccc(Cc2nnc(NC(=O)Nc3ccc(F)cc3)s2)cc1OC,,active: 18.9 µM
C/C(N)=C(/C#N)C(=O)COC(=O)CCSc1ccccc1Cl,,"inconclusive: 21.2 µM [inhibitor, single point]"
CCOC(=O)NC1(NC(C)C)Oc2ccccc2O1,,"inconclusive: 29.9 µM [inhibitor, single point]"
O=[N+]([O-])c1cccc2ccc(/C=C/c3ccc(Cl)cc3)nc12,inactive: -11%,
Cc1c(CCO)c(=O)n(-c2ccccc2)n1S(=O)(=O)c1ccc(Cl)cc1,inconclusive: -32% [inhibitor],
O=C(NCCN1CCOCC1)c1cccc(NS(=O)(=O)c2ccc(Br)cc2)c1,inactive: -9.89%,
CCC(=O)N1c2ccc(S(=O)(=O)NCCc3ccc(C)cc3)cc2CC1C (stereo not given),inconclusive: -30.4% [inhibitor],
CCCN1/C(=C2/SC(=S)N(CC)C2=O)C=Cc2ccccc21,inactive: -8.65%,
O=C1C2=C(c3ccccc31)[N+](=O)[C@@H]1CCCC[C@@H]1N2[O-],,"inconclusive: 18.9 µM [inhibitor, partial curve]"
CC1CCN(CC(CS(=O)(=O)c2ccc([N+](=O)[O-])cc2)N2CCC(C)CC2)CC1 (stereo not given),,"inconclusive: 6.7 µM [inhibitor, full curve]"
Cc1ccc(CC(NC(=O)c2ccccc2)C(=O)NC(Cc2ccccc2)C(=O)O)cc1 (stereo not given) (Bz-[Phe(4-Me)]-Phe-OH; configuration not given here),,"inconclusive: 21.2 µM [inhibitor, single point]"
COc1ccccc1NS(=O)(=O)c1cc(NC(=O)Nc2ccc(Cl)cc2Cl)ccc1N1CCCCC1,,"inconclusive: 11.9 µM [inhibitor, partial curve]"

Structure (SMILES),"max response, negative = inhibition",Potency
N#Cc1c(NC(=O)CSc2nc3ccccc3s2)sc2c1CCCC2,,"inconclusive: 23.8 µM [inhibitor, partial curve]"
COc1ccccc1CNC(=O)C12CC3CC(CC(C3)C1)C2,,active: 26.7 µM
O=C(CSCc1ccccc1)Nc1ccc(S(=O)(=O)Nc2ncccn2)cc1,,"inconclusive: 26.7 µM [inhibitor, single point]"
CC1C=CCC2C(=O)N(c3ccc(OC(=O)c4cccs4)cc3)C(=O)C12 (stereo not given),,"inconclusive: 15 µM [inhibitor, partial curve]"
Cc1ccc(C2=NNC(c3cccc(F)c3)S2)cc1 (stereo not given),,"inconclusive: 26.7 µM [inhibitor, single point]"
Cn1c(=O)c2cc(NC(=O)Cc3cccc4ccccc34)ccc2n1-c1ccccc1,,"inconclusive: 84.4 µM [inhibitor, partial curve, poor fit]"
CC(NS(=O)(=O)c1ccccc1)C(=O)Nc1nccs1 (stereo not given),,active: 21.2 µM
CCCOc1c(Br)cc(C(N)=O)cc1OCC,,"inconclusive: 8.44 µM [inhibitor, partial curve]"
CC(C)C(=O)N(Cc1ccc2c(c1)OCO2)Cc1ccccn1,inactive: -7.84%,
COc1ccccc1CNC(=O)C1CCCC1,inactive: -0.01%,
CCCCN(CC)S(=O)(=O)c1ccc(C(=O)Nc2nnc(-c3cccs3)o2)cc1,,"inconclusive: 23.8 µM [inhibitor, partial curve]"
CCn1nnc2c(=O)oc3ccccc3c21,,"inconclusive: 37.7 µM [inhibitor, single point]"
CC(C)c1ccc(OCC(=O)NNC(=S)NC(=O)c2ccco2)c(Br)c1,inconclusive: -35.3% [inhibitor],
CCOC(=O)c1ccccc1-c1csc(NS(=O)(=O)c2ccc(Cl)cc2)n1,,"inconclusive: 23.8 µM [inhibitor, single point]"
O=C(C1CC1)N1CCN(c2ccnc3cc(Cl)ccc23)CC1,inactive: 1.02%,
CC(C)(Oc1ccc(Cl)cc1)C(=O)OCC(=O)N1CCCC1,inactive: -9.5%,
CCc1ccc(CN(C)C(=O)c2cc(COc3c(F)cccc3F)on2)cc1,,active: 18.9 µM
CC(C)(C)c1ccc(C(=O)N/N=C/c2ccccn2)cc1,inactive: 4.01%,
O=C(O)c1ccccc1C1=Nc2ccc(O)cc2Oc2cc(O)ccc21,,"inconclusive: 2.99 µM [inhibitor, partial curve]"
COc1ccc(S(=O)(=O)CCC(=O)NCc2ccc(C)o2)cc1,,"inconclusive: 26.7 µM [inhibitor, single point]"
Cc1nn(-c2ccccc2)c(C)c1C(=O)NCc1ccc(S(N)(=O)=O)cc1,inactive: -2.31%,
O=C(O)c1ccc(N2CC3CC(C2)c2cccc(=O)n2C3)c(NC(=S)Nc2ccc(Cl)cc2Cl)c1 (stereo not given),,active: 11.9 µM
